For one molecule, binding results are on record in paper PMC11094923.

The target of the test is T1, Flag-tagged SDC1 (UniProt P18827).
T1 sequence: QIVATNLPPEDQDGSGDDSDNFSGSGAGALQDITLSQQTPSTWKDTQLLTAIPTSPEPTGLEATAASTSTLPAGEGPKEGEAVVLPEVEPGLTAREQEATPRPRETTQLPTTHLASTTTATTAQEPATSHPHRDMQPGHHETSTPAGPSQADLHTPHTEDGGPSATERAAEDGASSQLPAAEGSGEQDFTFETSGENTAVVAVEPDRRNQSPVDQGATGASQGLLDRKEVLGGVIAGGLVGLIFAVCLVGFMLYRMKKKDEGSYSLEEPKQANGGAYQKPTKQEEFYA
Description: co-IP; HCE-2 cells transiently transfected with 3 ug pFLAG-plasmid and 3 ug MYC-plasmid; lysed by sonication in IP buffer 24 h after transfection; anti-FLAG or anti-MYC antibody, protein G agarose, 4 °C overnight; Western blot for CXCL14 and SDC1. A general note: Immunoblotting shows a protein as a band on a membrane.

These are yes or no findings as the source states them, for the method shown. Binding seen in cells or lysates may run through a third protein. Some binding calls cover weakened binding; strength is not graded here. Where a sequence is shown, tags or fusion partners need not be part of it.

B1: MYC-tagged CXCL14 (ligand, UniProt O95715 35-111)
chain: SKCKCSRKGPKIRYSDVKKLEMKPKYPHCEEKMVIITTKSVSRYRGQEHCLHPKLQSTKRFIKWYNAWNEKRRVYEE
Consider B1, for which the binding entry is reported as “binds”.
